Our source for the binding values is PMC9115032.

By UniProt entry, the sequences of proteins in these tests, tags left out. Residues count along the entry.
UniProt Q9NZQ7, residues 19-290: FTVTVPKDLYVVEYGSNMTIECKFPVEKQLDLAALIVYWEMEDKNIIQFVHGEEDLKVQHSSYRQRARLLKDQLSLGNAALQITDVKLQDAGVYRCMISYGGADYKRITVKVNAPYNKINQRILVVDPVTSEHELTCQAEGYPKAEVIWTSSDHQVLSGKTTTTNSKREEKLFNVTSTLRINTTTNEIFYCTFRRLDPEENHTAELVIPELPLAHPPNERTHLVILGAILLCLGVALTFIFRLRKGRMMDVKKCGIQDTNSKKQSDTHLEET
UniProt Q9NRR5: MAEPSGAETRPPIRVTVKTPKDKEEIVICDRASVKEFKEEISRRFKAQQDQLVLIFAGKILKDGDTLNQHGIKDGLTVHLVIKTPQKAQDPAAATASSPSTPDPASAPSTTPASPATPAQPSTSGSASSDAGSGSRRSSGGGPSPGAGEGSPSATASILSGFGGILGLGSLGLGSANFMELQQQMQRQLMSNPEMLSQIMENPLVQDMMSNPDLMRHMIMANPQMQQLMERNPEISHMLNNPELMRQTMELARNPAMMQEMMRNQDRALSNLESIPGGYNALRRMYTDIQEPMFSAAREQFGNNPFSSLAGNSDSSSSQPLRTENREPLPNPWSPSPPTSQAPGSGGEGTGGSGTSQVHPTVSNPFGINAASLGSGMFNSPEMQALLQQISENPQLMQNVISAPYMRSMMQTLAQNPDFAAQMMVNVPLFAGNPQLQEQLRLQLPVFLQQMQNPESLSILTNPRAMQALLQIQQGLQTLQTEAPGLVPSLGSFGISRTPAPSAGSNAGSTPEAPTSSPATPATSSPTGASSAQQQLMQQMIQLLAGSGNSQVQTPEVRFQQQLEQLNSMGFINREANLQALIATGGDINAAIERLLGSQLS

The test addresses PD-L1 (human (endogenous in A375)) (UniProt Q9NZQ7). Nature of the test: co-IP; endogenous co-IP from A375 lysate with control IgG, anti-PD-L1 or anti-UBQLN4 antibody, protein A/G agarose beads, washed with PBST (PBS pH 7.4, 0.1% Triton X-100).

Results are given in words; binding and its absence hold for the method and conditions named. Binding seen in cells or lysates may run through a third protein. Some entries that bind do so weakly or less than the wild type.

Regarding UBQLN4 (from UniProt Q9NRR5 1-601), the binding result is on record as “binds”.
